Data from patent US20180035670A1, “ACTIVE COMPOUND COMBINATIONS” (BAYER CROPSCIENCE AKTIENGESELLSCHAFT, priority 2015, published 2018).
Values joined by “and” are separate entries in the source; they are usually repeats but may differ in a detail not shown here. Equal values may be shown once. The name of at least one read-out is uncertain.

Columns and labels:
[1] = system: Venturia inaequalis; assay: in vivo preventive test on Venturia test (apples); conditions: 10 days after inoculation
[2] = system: Phakopsora pachyrhizi; assay: in vivo preventive test on Phakopsora test (soybeans); conditions: 7 days after inoculation

Row | SMILES | Efficacy in % found ([1]; 1 ppm a.i.) | Efficacy in % found ([2]; 0.5 ppm a.i.) | Efficacy in % found ([1]; 0.25 ppm a.i.) | Efficacy in % found ([2]; 0.25 ppm a.i.)
1 | CC(O)(Cn1cncn1)c1ccc(Oc2ccc(Cl)cc2)cc1C(F)(F)F (stereo not drawn) [1.084, 2-[4-(4-chlorophenoxy)-2-(trifluoromethyl)phenyl]-1-(1H-1,2,4-triazol-1-yl)propan-2-ol] | 30% |  |  | 
2 | CC[C@@H]1CC(C)(C)c2cccc(NC(=O)c3cccnc3C(F)F)c21 [(I-4), 2-(difluoromethyl)-N-[(3R)-3-ethyl-1,1-dimethyl-2,3-dihydro-1H-inden-4-yl]nicotinamide] |  | 80% | 8% | 
3 | CCCC1CC(C)(C)c2cccc(NC(=O)c3cccnc3C(F)F)c21 (stereo not drawn) [(I-5), 2-(difluoromethyl)-N-(1,1-dimethyl-3-propyl-2,3-dihydro-1H-inden-4-yl)nicotinamide] |  | 89% and 71% and 65% |  | 
4 | CCC[C@@H]1CC(C)(C)c2cccc(NC(=O)c3cccnc3C(F)F)c21 [(I-6), 2-(difluoromethyl)-N-[(3R)-1,1-dimethyl-3-propyl-2,3-dihydro-1H-inden-4-yl]nicotinamide] | 0% and 8% |  |  | 71% and 78%
